# Tested on: E. coli (B/r strain)
# Test: microbe, parasite or virus in culture
# Format: cell-based
# Details: Escherichia coli, 24 h, read-out: Minimal inhibition concentrations, E. coli
smiles,measurement,value
CC1(C)S[C@@H]2[C@H](NC(=O)[C@H](N)c3ccccc3)C(=O)N2[C@H]1C(=O)O [ampicillin],MIC,5 µM

# Reference: patent publication US20130065857A1, “NOVEL DXR INHIBITORS FOR ANTIMICROBIAL THERAPY” (Baylor College of Medicine, priority 2009, published 2013)
